US20240026383A1 (priority 2020, published 2024)
Where a chain is given by its changes, count along the chain named. Some of these results come from one statement about several compounds together.

B1: Tag1: theophylline dependent T4 td intron after ATG of FnCas12a; −4P, −5P, −6P; 5′ exon TCCtcaGGT; SEQ ID NO: 49 (nucleic acid)
DNA: TCCTCAGGTTAATTGAGGCCTGAGTATAAGGTGACTTATACTTGTAATCTATCTAAACGGGGAACCTCTCTAGTAGACAATCCCGTGCTAAATTGATACCAGCATCGTCTTGATGCCCTTGGCAGCATAAATGCCTAACGACTATCCCTTTGGGGAGTAGGGTCAAGTGACTCGAAACGATAGACAACTTGCTTTAACAAGTTGGAGATATAGTCTGCTCTGCATGGTGACATGCAGCTGGATATAATTCCGGGGTAAGATTAACGACCTTATCTGAACATAATGCTA
modifications: Tag1 T4 td intron with the theophylline aptamer
B2: Tag3: theophylline dependent T4 td intron tag; −4W, −5W, −6P; 5′ exon TCCttgGGT; SEQ ID NO: 47 (nucleic acid)
DNA: B1 DNA with C5T, A6G
modifications: Tag3 T4 td intron with the theophylline aptamer
B3: Tag4: theophylline dependent T4 td intron tag; −4M, −5P, −6P; 5′ exon TCCtctGGT; SEQ ID NO: 48 (nucleic acid)
DNA: B1 DNA with A6T
modifications: Tag4 T4 td intron with the theophylline aptamer

System: SprF gene of Flavobacterium IR1
Test: SprF knock-out with four tagged-intron FnCas12a variants
Type: cell-based
Conditions: T crRNA, plated on 2 mM theophylline, sampled every 24 hours

Molecule | knock-out efficiency of SprF (colony PCR)
B1 | up to 100%
B2 | up to 100%
B3 | up to 100%
